According to patent publication US20250186594A1:
No constants are given. Whether binding was seen depends on the method and setting. Some results given as binding are weak or reduced against the parent protein; the word gives no strength. Where a sequence is shown, tags or fusion partners need not be part of it.

Protein sequences, listed by entry. Tags and fused reporters are not part of them. Lines headed by an entry give the natural chain unless they say otherwise; changes in a name come on top.
UniProt Q14116: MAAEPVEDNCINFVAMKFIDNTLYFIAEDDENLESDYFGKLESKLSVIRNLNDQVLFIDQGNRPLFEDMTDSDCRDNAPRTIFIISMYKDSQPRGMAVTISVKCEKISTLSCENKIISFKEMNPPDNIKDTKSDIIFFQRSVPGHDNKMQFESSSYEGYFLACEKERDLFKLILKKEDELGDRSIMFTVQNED

Assays:
[1] = target: T1, Fc fused human IL-18Rα (human) (UniProt Q13478); assay: SPR (Biacore), Fc fused human IL-18Rα captured, IL-18 polypeptide as analyte in a dilution series (concentrations not printed on the sheet)
T1 sequence (looked up): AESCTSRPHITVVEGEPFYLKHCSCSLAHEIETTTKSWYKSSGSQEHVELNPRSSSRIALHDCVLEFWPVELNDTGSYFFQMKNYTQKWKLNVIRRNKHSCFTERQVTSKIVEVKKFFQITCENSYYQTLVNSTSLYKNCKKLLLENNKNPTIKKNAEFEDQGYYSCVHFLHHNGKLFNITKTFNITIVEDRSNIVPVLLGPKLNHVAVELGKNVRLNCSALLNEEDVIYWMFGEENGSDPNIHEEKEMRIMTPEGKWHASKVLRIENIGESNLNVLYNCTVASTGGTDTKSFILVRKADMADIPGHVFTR

[2] = target: T2, IL-18Rα/β heterodimer (Fc fused human IL-18Rα mixed with Fc fused human IL-18Rβ) (human) (UniProt Q13478+O95256); assay: SPR (Biacore), Fc fused human IL-18Rα and IL-18Rβ (IL-18RAP) pre-mixed and captured as heterodimer, IL-18 polypeptide as analyte in a dilution series (concentrations not printed on the sheet)
T2 sequence (looked up) 1: T1 sequence (looked up)
T2 sequence (looked up) 2: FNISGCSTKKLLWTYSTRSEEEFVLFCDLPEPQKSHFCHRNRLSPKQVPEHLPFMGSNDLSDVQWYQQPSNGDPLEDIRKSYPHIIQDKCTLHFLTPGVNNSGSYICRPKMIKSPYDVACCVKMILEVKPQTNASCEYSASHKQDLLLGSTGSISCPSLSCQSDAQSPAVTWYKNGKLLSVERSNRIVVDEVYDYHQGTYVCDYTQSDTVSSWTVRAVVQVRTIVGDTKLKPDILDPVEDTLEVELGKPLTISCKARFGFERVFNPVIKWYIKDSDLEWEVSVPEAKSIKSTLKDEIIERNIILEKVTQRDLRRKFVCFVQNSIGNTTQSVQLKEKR

Substance | binding [1] | binding [2]
IL-18 variant SEQ ID NO: 57 (E6K, C38S, K53A) (from UniProt Q14116 37-193) (ligand) | binds | 
Native IL-18 wild-type (SEQ ID NO: 1, native sequence) (from UniProt Q14116 37-193) (ligand) | binds | binds
